Test results from the supplement of paper PMC11348887.
Some of the results follow. Most entries show no effect beyond the scatter of the controls.

Test system: hPSC-derived cortical neurons (WA09)
Test: nucleus roundness z-score vs screen plate; higher = rounder nuclei (more mature)
Conditions: 5 µM; treatment: days 7-14 after plating, readout day 21

**Q.** Which nucleus roundness z-score does the source give for `CCOC(N)=O` [Urethane] here?
**A.** -5.14

**Q.** Which nucleus roundness z-score does the source give for `COc1ccc2[nH]c([S@@+]([O-])Cc3ncc(C)c(OC)c3C)nc2c1` [Esomeprazole Magnesium] here?
**A.** 1.02

**Q.** For `CN1CCN(c2cccc(Nc3nc4c(-c5ccc(S(C)(=O)=O)cc5)cccn4n3)c2)CC1`, which nucleus roundness z-score is on record?
**A.** -0.856

**Q.** Which nucleus roundness z-score does the source give for `CCN(CC)C(=S)SSC(=S)N(CC)CC` [Disulfiram] here?
**A.** -1.23

Test system: hPSC-derived cortical neurons (WA09)
Test: KCl-induced FOS+/EGR-1+ double-positive nuclei fraction z-score (KCl minus unstimulated); higher = stronger activity-induced IEG response
Conditions: 5 µM; treatment: days 7-14 after plating, readout day 21

**Q.** With `O=C1NC(=O)C(c2ccccc2[N+](=O)[O-])=C1Nc1ccc(O)c(Cl)c1` as the compound, how does the “KCl-induced FOS+/EGR-1+ double-positive nuclei fraction z-score” value read?
**A.** -0.629

**Q.** Which “KCl-induced FOS+/EGR-1+ double-positive nuclei fraction z-score” value does the source give for `CCCOc1ccc(CCc2nc3cc(-c4c(C)noc4C)ccc3n2CCN2CCOCC2)cc1` here?
**A.** 0.839

**Q.** `C[C@]12CCC(=O)C=C1[C@@H]1C[C@@H]1[C@H]1[C@@H]3[C@@H]4C[C@@H]4[C@@]4(CCC(=O)O4)[C@@]3(C)CC[C@@H]12` [Drospirenone] was tested. Which “KCl-induced FOS+/EGR-1+ double-positive nuclei fraction z-score” value did it give?
**A.** 0.734

**Q.** With `CCOC(=O)c1cnc2ccc(-c3cncc(NS(=O)(=O)c4ccccc4)c3)cn12` as the compound, how does the “KCl-induced FOS+/EGR-1+ double-positive nuclei fraction z-score” value read?
**A.** 0.14

**Q.** `OC[C@H]1O[C@@H](c2ccc(Cl)c(Cc3ccc(O[C@H]4CCOC4)cc3)c2)[C@H](O)[C@@H](O)[C@@H]1O` was tested. Which “KCl-induced FOS+/EGR-1+ double-positive nuclei fraction z-score” value did it give?
**A.** 0.902

**Q.** With `CCCCOc1ccc(C(=O)Nc2ccc(F)cc2F)cc1` as the compound, how does the “KCl-induced FOS+/EGR-1+ double-positive nuclei fraction z-score” value read?
**A.** -0.256

**Q.** How did the “KCl-induced FOS+/EGR-1+ double-positive nuclei fraction z-score” value turn out when `Cc1cc2c(C(N)=O)cccc2n1-c1nc2c(c(NCc3ccccc3)n1)COCC2` was run?
**A.** -1.01

**Q.** For `CC(C)(Oc1ccc(C(=O)c2ccc(Cl)cc2)cc1)C(=O)O` [Fenofibric acid], which “KCl-induced FOS+/EGR-1+ double-positive nuclei fraction z-score” value is on record?
**A.** -0.274

**Q.** With `CC(C)c1c(C(=O)Nc2ccccc2)c(-c2ccccc2)c(-c2ccc(F)cc2)n1CC[C@@H](O)C[C@@H](O)CC(=O)O` [Atorvastatin Calcium] as the compound, how does the “KCl-induced FOS+/EGR-1+ double-positive nuclei fraction z-score” value read?
**A.** -1.6

**Q.** Which “KCl-induced FOS+/EGR-1+ double-positive nuclei fraction z-score” value does the source give for `Nc1nc(Nc2ccc3c(c2)CCC(N2CCCC2)CC3)nn1-c1cc2c(nn1)-c1ccccc1CCC2` (centres undefined) here?
**A.** -23.4
